These are yes or no findings as the source states them, for the method shown. A result given as binding can be weak or reduced; the word gives no strength. Blank lines part the entries; values can stand above or below the binder they belong to.
Molecular target: RBD-truncated TF construct, residues 113-432 (PPI + SBD) (E. coli)
Experiment: NMR paramagnetic relaxation enhancement (PRE); MTSL-labeled peptide added to isotope-labeled PPI + SBD or full-length TF (the latter at a concentration where it is predominantly dimeric); 15N-1H TROSY and methyl SOFAST-HMQC, oxidized against reduced (1 mM ascorbic acid), I^ox/I^red; 20 mM sodium phosphate pH 7.4, 100 mM NaCl; both purified

binding: binds
B1: MTSL-labeled IcdH3 peptide (ICDH 177-194) (peptide)
peptide: KFLREEMGVKKIRFPEHC
modifications: MTSL spin label on the endogenous cysteine

binding: binds
B2: MTSL-labeled IcdH2 peptide (ICDH 125-137) (peptide)
peptide: YICLRPVRYYQGT
modifications: MTSL spin label on the endogenous cysteine
